Experimental data: paper PMC6182782
These are yes or no findings as the source states them, for the method shown. Binding seen in cells or lysates may run through a third protein. Some entries that bind do so weakly or less than the wild type.

Chains of the proteins cited; added tags and fusions are not shown.
UniProt Q13263: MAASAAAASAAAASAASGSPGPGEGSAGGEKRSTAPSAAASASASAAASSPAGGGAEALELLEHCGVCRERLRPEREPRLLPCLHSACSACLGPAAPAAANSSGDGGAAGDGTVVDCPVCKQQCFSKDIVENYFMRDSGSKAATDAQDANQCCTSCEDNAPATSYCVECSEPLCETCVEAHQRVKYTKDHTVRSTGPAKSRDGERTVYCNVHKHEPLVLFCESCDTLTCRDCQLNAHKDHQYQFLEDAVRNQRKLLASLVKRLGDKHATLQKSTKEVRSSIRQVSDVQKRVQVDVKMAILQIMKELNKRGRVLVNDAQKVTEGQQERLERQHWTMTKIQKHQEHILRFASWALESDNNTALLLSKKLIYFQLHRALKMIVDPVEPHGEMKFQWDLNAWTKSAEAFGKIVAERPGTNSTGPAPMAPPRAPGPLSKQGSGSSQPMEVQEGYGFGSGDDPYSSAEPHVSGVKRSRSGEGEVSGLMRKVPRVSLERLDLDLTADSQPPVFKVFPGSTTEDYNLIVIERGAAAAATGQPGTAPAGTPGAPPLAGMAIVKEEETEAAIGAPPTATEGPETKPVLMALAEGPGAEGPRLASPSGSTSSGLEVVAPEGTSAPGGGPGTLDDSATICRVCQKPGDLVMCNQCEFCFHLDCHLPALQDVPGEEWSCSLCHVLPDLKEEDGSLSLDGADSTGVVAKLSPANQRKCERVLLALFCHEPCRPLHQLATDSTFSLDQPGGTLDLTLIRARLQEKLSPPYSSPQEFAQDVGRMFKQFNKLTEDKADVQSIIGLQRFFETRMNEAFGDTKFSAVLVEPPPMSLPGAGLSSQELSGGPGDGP

How the values were obtained:
[1] = molecular target: T1, MAGEC2 (human (endogenous in A375 and Hs 695 T)) (UniProt Q9UBF1); assay: co-IP; endogenous proteins, A375 cells (1 x 10^8) lysed in IP buffer (50 mM Tris-HCl pH 7.5, 150 mM NaCl, 1 mM EDTA, 0.5% NP-40); IP with anti-MAGEC2 or anti-TRIM28 antibody and protein A-Sepharose, mIgG as negative control; immunoblot
T1 sequence: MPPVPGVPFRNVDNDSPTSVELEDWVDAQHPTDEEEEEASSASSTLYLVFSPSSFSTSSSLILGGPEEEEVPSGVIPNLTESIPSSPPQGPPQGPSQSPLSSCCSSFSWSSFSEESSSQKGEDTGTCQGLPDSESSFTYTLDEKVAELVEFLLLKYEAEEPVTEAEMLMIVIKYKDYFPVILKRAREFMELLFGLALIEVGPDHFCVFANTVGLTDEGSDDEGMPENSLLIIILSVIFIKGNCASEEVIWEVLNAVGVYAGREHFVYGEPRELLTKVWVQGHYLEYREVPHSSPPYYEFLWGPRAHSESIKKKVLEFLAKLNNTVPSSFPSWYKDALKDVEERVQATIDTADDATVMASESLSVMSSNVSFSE

[2] = molecular target: TRIM28 (human (endogenous in A375 and Hs 695 T)) (UniProt Q13263); assay: co-IP; endogenous proteins, Hs 695 T cells (1 x 10^8) lysed in IP buffer (50 mM Tris-HCl pH 7.5, 150 mM NaCl, 1 mM EDTA, 0.5% NP-40); IP with anti-TRIM28 antibody and protein A-Sepharose, mIgG as negative control; immunoblot
[3] = molecular target: TRIM28 (human (endogenous in A375 and Hs 695 T)) (UniProt Q13263); assay: co-IP; endogenous proteins, A375 cells (1 x 10^8) lysed in IP buffer (50 mM Tris-HCl pH 7.5, 150 mM NaCl, 1 mM EDTA, 0.5% NP-40); IP with anti-MAGEC2 or anti-TRIM28 antibody and protein A-Sepharose, mIgG as negative control; immunoblot

Molecule | binding [1] | binding [2] | binding [3]
TRIM28 (from UniProt Q13263 1-835) | binds |  | 
MAGEC2 (protein, UniProt Q9UBF1 1-373) MPPVPGVPFRNVDNDSPTSVELEDWVDAQHPTDEEEEEASSASSTLYLVFSPSSFSTSSSLILGGPEEEEVPSGVIPNLTESIPSSPPQGPPQGPSQSPLSSCCSSFSWSSFSEESSSQKGEDTGTCQGLPDSESSFTYTLDEKVAELVEFLLLKYEAEEPVTEAEMLMIVIKYKDYFPVILKRAREFMELLFGLALIEVGPDHFCVFANTVGLTDEGSDDEGMPENSLLIIILSVIFIKGNCASEEVIWEVLNAVGVYAGREHFVYGEPRELLTKVWVQGHYLEYREVPHSSPPYYEFLWGPRAHSESIKKKVLEFLAKLNNTVPSSFPSWYKDALKDVEERVQATIDTADDATVMASESLSVMSSNVSFSE |  | binds | binds
